These are yes or no findings as the source states them, for the method shown. In cells and extracts the contact can be indirect. Some results given as binding are weak or reduced against the parent protein; the word gives no strength. Tags and fused reporters may be left off the sequences shown.

This is an account of results in PMC11226663.

Experiment [1] concerns the target T1, GST-tagged RNF214 truncation, amino acids 207–410 (contains the CC domain) (human) (UniProt Q8ND24).
T1 sequence: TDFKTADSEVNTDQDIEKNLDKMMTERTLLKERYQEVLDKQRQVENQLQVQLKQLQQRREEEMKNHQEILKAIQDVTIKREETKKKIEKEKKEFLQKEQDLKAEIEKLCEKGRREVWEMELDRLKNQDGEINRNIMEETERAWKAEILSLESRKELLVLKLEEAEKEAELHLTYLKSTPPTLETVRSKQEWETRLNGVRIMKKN
Description: pull-down; HEK293T cells co-transfected with GST-fusion and Venus-fusion plasmids (1 μg each), 48 h; cleared lysate on GST-tag Purification Resin at 4 °C overnight, eight washes with cell lysis buffer, western blot for GST and Venus tags.

For experiment [2], the target named is T2, GST-tagged RNF214 truncation, amino acids 658–703 (RING finger domain) (human) (UniProt Q8ND24).
T2 sequence: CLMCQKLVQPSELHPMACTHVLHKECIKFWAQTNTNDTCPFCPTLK
The description is as above.

Regarding “Venus-RNF214 (RING finger protein 214, full length) (from UniProt Q8ND24 1-703)”, the binding result in experiment [1] was “binds”; in experiment [2], “no binding”.
